# Experimental data reported in PubChem BioAssay AID1347076 (National Center for Advancing Translational Sciences (NCATS), 2019).
# Among all 400,000 compounds or so, about 13,000 (3.2%) were called active. The inconclusive results got no clear call from the source; some entries with a clear call stand among them for comparison. Calls follow the shape of the dose curve; as a rule, active = well fitted cell-killing curve with a large enough effect; inconclusive = small, poorly fitted or top-dose-only effect, or effect the other way; inactive = flat fitted curve, though single readings scatter. Where the call is inconclusive, the potency comes from a doubtful curve fit.
# Experiment: qHTS assay for MDR1-selective chemotherapeutics: Primary screen using the drug-selected MDR subline cells KB-V1; also: nearly all actives have a fitted effect of over 60% in size
# Details: KB-V1 MDR cells viability, CellTiter-Glo, 72 h; activity change, negative = cytotoxicity: at 46.1 µM (top of the series)
# How it was run: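 Cytotoxicity via CellTiter-Glo luminescence after 72 h compound exposure at 37 degrees C. Cells: drug-selected KB-V1 line, DMEM phenol-red free plus 10% FBS. Compounds tested at multiple concentrations; normalized data fitted to concentration-effect curves.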
# % is scaled to controls: 0 for no effect and ±100 for the full control effect; potency is read from the fitted curve at half-maximal effect.
SMILES,"activity change, negative = cytotoxicity",Potency
Cc1cc(S(=O)(=O)N2CCN(c3ccc(F)cc3)CC2)ccc1-n1cnnn1,inactive: -2.43%,–
CCn1cc(C(=O)O)c(=O)c2cc(F)c(N3CCN(S(=O)(=O)c4ccc5c(c4)OCCO5)CC3)cc21,inactive: -17.2%,–
CCNC(=O)/C(C#N)=C/c1c(N(Cc2ccccc2)Cc2ccccc2)nc2ccccn2c1=O,–,active: 2.91 µM
Cc1ccccc1NC(=S)NCCc1c[nH]c2ccccc12,inactive: -5.4%,–
COc1ccc(-c2noc(N3CCC(C(=O)Nc4ccc(OC)c(OC)c4)CC3)n2)cc1,inconclusive: 11.8%,–
O=C(COC(=O)c1cc(Cl)ccc1O)NNC(=O)c1ccc([N+](=O)[O-])cc1,–,"inconclusive: 32.6 µM [rising, single point]"
CCOc1ccc(C(=O)c2cc([N+](=O)[O-])ccc2N2CCOCC2)cc1,–,"inconclusive: 0.0651 µM [cytotoxic, full curve, poor fit]"
CC(OC(=O)CN1C(=O)C2C3C=CC(C4CC34)C2C1=O)C(=O)c1ccccc1 (stereo not drawn),inactive: -0.572%,–
CCOC(=O)C1(CCCc2ccccc2)CCN(C(=O)c2cncs2)CC1,–,"inconclusive: 1.84 µM [cytotoxic, partial curve, poor fit]"
O=C(Nc1ccc(F)cc1F)c1cc(-c2ccco2)nc2ccccc12,inactive: -2.43%,–
CS(=O)(=O)c1ccc(Cl)c(NC(=O)CNC(=O)c2ccc3c(c2)OCO3)c1,inactive: 29.5%,–
COc1ccc(C(C(=O)NC2CCCCC2)N(Cc2cccs2)C(=O)Cc2c[nH]c3ccccc23)cc1OC (stereo not drawn),–,active: 8.2 µM
O=c1[nH][nH]c2cc([N+](=O)[O-])ccc12,–,"inconclusive: 29.1 µM [cytotoxic, single point]"
COCCCNC(=O)C(C)n1c2ccccc2c2cnn(C)c(=O)c21 (stereo not drawn),inactive: 0%,–
CCC1Oc2ccc(C)cc2N(CC(=O)NCCN2CCCCCC2)C1=O (stereo not drawn),–,"inconclusive: 8.2 µM [cytotoxic, partial curve]"
CCC(C)(C)n1nnnc1C(c1cc2ccc(OC)cc2[nH]c1=O)N1CCN(C2CCCCC2)CC1 (stereo not drawn),–,"inconclusive: 13 µM [cytotoxic, partial curve]"
CCC1CN(C(=O)NCc2ccccc2)c2cc(C)ccc2O1 (stereo not drawn),inactive: -1.59%,–
CN1/C(=C\C(=O)CSc2nnc(NCc3ccccc3)s2)C(C)(C)c2ccccc21,–,"inconclusive: 9.2 µM [cytotoxic, partial curve]"
c1ccc(-c2nc(N3CCN(c4ccccc4)CC3)nc(-n3ccnc3)n2)cc1,–,active: 23.1 µM
COc1ccc2cc(CNc3ccc(C)cc3)c(=O)n(CC(=O)Nc3ccc(C)cc3Cl)c2c1,–,"inconclusive: 25.9 µM [cytotoxic, partial curve, poor fit]"
Cc1cc(Oc2ccccc2)nc(NCc2ccccc2)n1,–,active: 20.6 µM
CCCN(CCC)C(=O)CC(c1ccccc1)c1cc(C)ccc1O (stereo not drawn),–,"inconclusive: 11.6 µM [cytotoxic, partial curve]"
Cc1cccc(-n2cc(CN3CCN(c4ccccn4)CC3)c(-c3cccc(F)c3)n2)c1,inactive: 9.13%,–
C=CCOc1ccccc1CNn1c(C)n[nH]c1=S,–,"inconclusive: 29.1 µM [cytotoxic, single point]"
CCCN1C(=O)c2ccccc2NC1c1ccc(OC)c(COc2cccc(OC)c2)c1 (stereo not drawn),inactive: -3%,–

# An excerpt from above in order of SMILES length, falling.
SMILES,"activity change, negative = cytotoxicity",Potency
CCC(C)(C)n1nnnc1C(c1cc2ccc(OC)cc2[nH]c1=O)N1CCN(C2CCCCC2)CC1 (stereo not drawn),–,"inconclusive: 13 µM [cytotoxic, partial curve]"
CCCN(CCC)C(=O)CC(c1ccccc1)c1cc(C)ccc1O (stereo not drawn),–,"inconclusive: 11.6 µM [cytotoxic, partial curve]"
O=c1[nH][nH]c2cc([N+](=O)[O-])ccc12,–,"inconclusive: 29.1 µM [cytotoxic, single point]"
C=CCOc1ccccc1CNn1c(C)n[nH]c1=S,–,"inconclusive: 29.1 µM [cytotoxic, single point]"

# (more compounds)

SMILES,"activity change, negative = cytotoxicity",Potency
CC(C)C(=O)NNS(=O)(=O)c1ccccc1,–,"inconclusive: 3.66 µM [rising, partial curve]"
Oc1ccc(Cl)cc1CNCc1cccc2ccccc12,inactive: -3.85%,–
Cc1cc(C(=O)NNC(=O)c2sccc2C)c(C)o1,inactive: -5.38%,–
COc1ccc(OC)c(NC(=O)C(=O)NNC(=O)C23CC4CC(CC(C4)C2)C3)c1,–,"inconclusive: 29.1 µM [cytotoxic, single point]"
C[C@H](CO)N1C[C@H](C)[C@@H](CN(C)C(=O)Nc2ccccc2)Oc2ccc(NC(=O)C3CCCCC3)cc2C1=O,–,"inconclusive: 11.6 µM [rising, partial curve]"
CC(=O)Nc1ccc(N=Cc2c(O)c(C(=O)Nc3ccccc3)cc3ccccc23)cc1,–,"inconclusive: 0.0058 µM [rising, full curve, poor fit]"
COc1ccc(-n2nc(C(=O)NCC(=O)N3CC(C)CC(C)C3)c3ccccc3c2=O)cc1 (stereo not drawn),inactive: -25.4%,–
Cc1ccc(CONC(=O)c2ccc(OC(F)F)cc2)cc1,inactive: 0%,–
COc1ccc(N2CCN(Cc3nc4c(c(=O)n(C)c(=O)n4C)n3C(C)C)CC2)cc1,inactive: -12.1%,–
COc1cccc(N2CCN(S(=O)(=O)c3ccc4c(c3)oc(=O)n4C)CC2)c1,–,"inconclusive: 29.1 µM [rising, single point]"
CC(C)C1Cc2c(sc3[nH]c(=S)n(Cc4ccccc4)c(=O)c23)CO1 (stereo not drawn),–,"inconclusive: 23.1 µM [cytotoxic, partial curve]"
Cn1nc(C(F)(F)F)c(C#N)c1N1CCN(c2ccc(F)cc2)CC1,–,"inconclusive: 18.4 µM [cytotoxic, partial curve]"
CC(C)(C)NC(=O)NC(=O)CSc1ccc(S(=O)(=O)N2CCOCC2)cn1,inactive: 1.12%,–
CCN1C=CC2=C(C#N)C(N)C(C#N)(C#N)C(c3ccccc3C(F)(F)F)C2C1 (stereo not drawn),–,"inconclusive: 14.6 µM [cytotoxic, partial curve, poor fit]"
CC(C)N(CC(N)=O)c1ncnc2sc(-c3ccccc3)cc12,–,"inconclusive: 14.6 µM [cytotoxic, partial curve, poor fit]"
CN(C)CCCn1c(-c2ccc(Cl)cc2)csc1=Nc1ccccc1,–,"inconclusive: 10.3 µM [cytotoxic, partial curve]"
Fc1ccc(CNn2cnnc2SCc2ccc(F)cc2)cc1,–,"inconclusive: 20.6 µM [cytotoxic, single point]"
NC1CCc2ccccc21 (stereo not drawn),inactive: 2.8%,–
CSc1nc(C)cc(-n2ccc(=O)[nH]c2=O)n1,inactive: 10.4%,–
CNC(=S)N=Nc1c(O)[nH]c2ccc(C(C)C)cc12,–,active: 20.6 µM
Cc1cc(O)c(C(c2ccccc2)N2CCN(c3ccc(F)cc3)CC2)c(=O)n1Cc1ccco1 (stereo not drawn),inactive: -3.44%,–
CCC(C)(C)n1nnnc1CN1CCN(C(c2ccccc2)c2ccccc2)CC1,–,"inconclusive: 29.1 µM [cytotoxic, single point]"
COc1ccccc1N(CC(=O)NCC1CCCO1)C(=O)CCC(=O)Nc1nccs1 (stereo not drawn),–,"inconclusive: 20.6 µM [rising, single point]"
O=C(c1ccco1)N(Cc1cccs1)c1ccc(F)cc1,inactive: -20.6%,–
Oc1c(C=C2N=c3ccccc3=N2)sc(=S)n1-c1ccccc1,–,"inconclusive: 20.6 µM [cytotoxic, partial curve, poor fit]"

SMILES,"activity change, negative = cytotoxicity",Potency
C=CCN(c1ccc(F)cc1)S(=O)(=O)c1cc(C(=O)NC2CC2)ccc1Cl,–,"inconclusive: 10.3 µM [cytotoxic, partial curve]"
CCN(CC)C(=O)c1oc2ccc(S(=O)(=O)N3CCCCCC3)cc2c1C,–,active: 13 µM
COc1cccc(C(C)(O)c2nc(-c3cc(F)cc(F)c3)cs2)c1 (stereo not drawn),inactive: 2.95%,–
Cc1ccc(-n2c(CCC(=O)O)ccc2-c2cccs2)cc1Cl,–,"inconclusive: 16.4 µM [rising, single point]"
C(=C\c1ccccc1)/C=N/N1CCN(c2ccccn2)CC1,–,"inconclusive: 20.6 µM [cytotoxic, single point]"
O=C(CN1CCN(C/C=C/c2ccccc2)CC1)Nc1cc([N+](=O)[O-])ccc1Cl,–,active: 23.1 µM
Cc1nc([N+](=O)[O-])c(Br)n1Cc1ccccc1,–,"inconclusive: 14.6 µM [cytotoxic, partial curve, poor fit]"
COc1cccc(C(C)(O)c2nc(-c3ccc(F)c(Cl)c3)cs2)c1 (stereo not drawn),inactive: 9.36%,–
CCc1ccccc1NC(=O)c1cc2nc(-c3ccc(Br)cc3)cc(C(F)(F)F)n2n1,inactive: 2.41%,–
Cc1cc(C(=O)CCl)c(C)n1-c1c(C)n(C)n(-c2ccccc2)c1=O,–,"inconclusive: 29.1 µM [cytotoxic, single point]"
O=C(N1CCN(c2cccc(Cl)c2)CC1)C1(c2cccs2)CCOCC1,–,active: 4.61 µM
COc1ccc(C(=O)NCC2(c3ccccc3)CCOCC2)cc1[N+](=O)[O-],–,"inconclusive: 29.1 µM [rising, single point]"
CN(CC(=O)Nc1ccc(C(N)=O)cc1)CC(=O)Nc1ccccc1Br,inconclusive: 0.838%,–
NC(=S)c1csc(CCNC(=O)c2ccccc2)n1,inactive: -0.216%,–
CN(C)N=C1c2cc(S(=O)(=O)N3CCOCC3)ccc2-c2ccc(S(=O)(=O)N3CCOCC3)cc21,–,"inconclusive: 8.2 µM [cytotoxic, partial curve, poor fit]"
Cc1cccc(C(C)C)c1NC(=O)CSc1ncnc2[nH]ncc12,inconclusive: -17.9%,–
NS(=O)(=O)c1ccc(NC(=O)NC2CCCCC2)cc1,–,"inconclusive: 14.6 µM [rising, partial curve, poor fit]"
COc1ccc2nc(NC(=O)CN(c3ccc(C)cc3)S(=O)(=O)c3c(C)nn(C)c3C)sc2c1,–,"inconclusive: 29.1 µM [cytotoxic, single point]"
COc1cccc(-c2csc(N3CCN(CC(=O)NNC(=O)c4ccc(Br)cc4)CC3)n2)c1,–,"inconclusive: 20.6 µM [cytotoxic, single point]"
CCOC(=O)/C(C#N)=C/c1cccc(F)c1,–,"inconclusive: 2.91 µM [cytotoxic, partial curve, poor fit]"
CC(C)OCCCN1C(=O)c2[nH]nc(-c3ccccc3O)c2C1c1ccccc1F (stereo not drawn),inactive: -0.404%,–
CC1Cc2ccccc2N1C(=S)Nc1cccc(S(=O)(=O)N(C)C)c1 (stereo not drawn),inactive: -22.5%,–
O=C(CN1CCN(C(C(=O)Nc2cc(C(F)(F)F)ccc2Cl)c2ccccc2)CC1)NC1CC1 (stereo not drawn),–,"inconclusive: 16.4 µM [cytotoxic, partial curve, poor fit]"
